PubChem BioAssay AID743456 | Peter MacCallum Cancer Centre – 2014

Test: 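miRNA mimics altering how resistant colon cancer cells respond to vorinostat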 (primary screen)
System: human HCT116-VR colon cancer cells, a vorinostat-resistant HCT116 line
Reagent: miRNA mimic
Timing: about 3 days from transfection to readout; drug present for the last 24 h
Challenge: vorinostat at 2.5 µM final for 24 h
Measurement: 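Per-well live-cell protease fluorescence and caspase luminescence under 2.5 µM vorinostat for 24 h, scored as robust z-scores and against mock transfection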
Scale: viability robust z-score and viability vs mock transfection: higher = more viable cells; caspase robust z-score: higher = more caspase activity, more apoptosis
Rule for the call: 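a mimic counts as active if it lands in a lowered-viability class or a caspase-activation class; wells with too few cells without drug are left out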
The deposit covers 878 reagents; shown is an unselected part. In the full data, 27 (3.1%) were called active. 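27 mimics are marked active, unlike an earlier stated count of 24; the viability threshold is described inconsistently.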 Not stated in the record: the amount of reagent.

microRNA	viability robust z-score	caspase robust z-score	viability hit class	caspase hit class	viability vs mock transfection	call
hsa-miR-95	-0.22	-0.14	no change	no change	0.77	inactive
hsa-miR-124	-0.59	0.03	no change	no change	0.69	inactive
hsa-miR-140-5p	0.37	-0.98	no change	no change	0.82	inactive
hsa-miR-31	-0.64	0.55	no change	no change	0.64	inactive
hsa-miR-196b*	0.16	0.8	no change	no change	0.82	inactive
hsa-miR-611	1.42	-0.55	no change	no change	1	inactive
hsa-miR-487b	-1.48	-0.82	no change	no change	0.54	inactive
hsa-miR-513b	0.07	-0.6	no change	no change	0.76	inactive
hsa-miR-26a	0.82	-0.74	no change	no change	0.92	inactive
hsa-miR-649	-0.13	-0.66	no change	no change	0.72	inactive
hsa-miR-936	-0.29	0.44	no change	no change	0.7	inactive
hsa-miR-9*	0.64	0.53	no change	no change	0.88	inactive
hsa-miR-136	0.62	-0.94	no change	no change	0.89	inactive
hsa-miR-769-5p	-0.36	-0.98	no change	no change	0.68	inactive
hsa-miR-147	-1	-0.28	no change	no change	0.65	inactive
hsa-miR-374b	0.98	-0.47	no change	no change	0.96	inactive
hsa-miR-1273	-0.68	-0.46	no change	no change	0.7	inactive
hsa-miR-1228*	0.2	-0.22	no change	no change	0.82	inactive
hsa-miR-192*	-0.3	-0.68	no change	no change	0.75	inactive
hsa-miR-190b	0.45	-0.67	no change	no change	0.86	inactive
hsa-miR-1979	-0.5	-0.55	no change	no change	0.72	inactive
hsa-miR-513a-5p	-0.54	0.17	no change	no change	0.66	inactive
hsa-miR-224*	0.26	1.76	no change	no change	0.8	inactive
hsa-miR-2053	0.36	0.12	no change	no change	0.85	inactive
hsa-miR-767-3p	0.78	0.44	no change	no change	0.89	inactive
hsa-miR-99b	0.82	0.68	no change	no change	0.9	inactive
hsa-miR-1180	-1	0.6	no change	no change	0.57	inactive
hsa-miR-942	-0.06	-1.04	no change	no change	0.78	inactive
hsa-miR-616*	0.7	-0.64	no change	no change	0.91	inactive
hsa-miR-378	0.36	-0.48	no change	no change	0.82	inactive
hsa-miR-581	1.12	-0.18	no change	no change	0.96	inactive
hsa-miR-1208	-0.34	1.34	no change	no change	0.69	inactive
hsa-miR-549	0.18	-0.62	no change	no change	0.82	inactive
hsa-miR-630	-2.06	3.3	no change	no change	0.44	inactive
hsa-miR-504	1.06	-0.28	no change	no change	0.94	inactive
hsa-miR-509-3-5p	-0.23	5.75	no change	caspase activation	0.7	active
hsa-miR-92a-1*	-2.11	3.61	no change	no change	0.44	inactive
hsa-miR-596	-0.7	0.83	no change	no change	0.62	inactive
hsa-miR-320b	0.5	0.26	no change	no change	0.84	inactive
hsa-miR-1825	1.02	-0.42	no change	no change	0.96	inactive
hsa-miR-186	1.78	0.08	no change	no change	1.06	inactive
hsa-miR-875-5p	-0.41	-0.83	no change	no change	0.72	inactive
hsa-miR-300	0.2	-0.88	no change	no change	0.82	inactive
hsa-miR-639	1.06	-0.31	no change	no change	0.94	inactive
hsa-miR-1238	-2.83	2.39	no change	no change	0.32	inactive
hsa-miR-1537	1.31	-0.82	no change	no change	0.99	inactive
hsa-miR-550	-0.42	1.53	no change	no change	0.68	inactive
hsa-miR-1272	-2.15	-0.96	no change	no change	0.46	inactive
hsa-miR-1294	-2.02	1.5	no change	no change	0.38	inactive
hsa-miR-708	-2.85	2.1	no change	no change	0.32	inactive
